In article PMC4392834:
These are yes or no findings as the source states them, for the method shown. Binding seen in cells or lysates may run through a third protein. Some binding calls cover weakened binding; strength is not graded here.

Protein sequences, listed by entry. Tags and fused reporters are not part of them.
UniProt P09077: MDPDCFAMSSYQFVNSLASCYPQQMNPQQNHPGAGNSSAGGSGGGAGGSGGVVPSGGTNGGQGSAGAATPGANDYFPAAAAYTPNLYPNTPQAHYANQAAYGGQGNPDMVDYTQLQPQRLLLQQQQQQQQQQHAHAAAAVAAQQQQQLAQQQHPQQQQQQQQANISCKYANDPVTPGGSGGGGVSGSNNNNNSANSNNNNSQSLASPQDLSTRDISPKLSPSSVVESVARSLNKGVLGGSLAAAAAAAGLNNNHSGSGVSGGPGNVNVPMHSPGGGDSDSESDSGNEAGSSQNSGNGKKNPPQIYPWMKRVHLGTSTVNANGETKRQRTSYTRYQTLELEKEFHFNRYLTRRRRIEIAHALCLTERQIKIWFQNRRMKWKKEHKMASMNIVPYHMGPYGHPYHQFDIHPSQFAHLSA
UniProt P83949: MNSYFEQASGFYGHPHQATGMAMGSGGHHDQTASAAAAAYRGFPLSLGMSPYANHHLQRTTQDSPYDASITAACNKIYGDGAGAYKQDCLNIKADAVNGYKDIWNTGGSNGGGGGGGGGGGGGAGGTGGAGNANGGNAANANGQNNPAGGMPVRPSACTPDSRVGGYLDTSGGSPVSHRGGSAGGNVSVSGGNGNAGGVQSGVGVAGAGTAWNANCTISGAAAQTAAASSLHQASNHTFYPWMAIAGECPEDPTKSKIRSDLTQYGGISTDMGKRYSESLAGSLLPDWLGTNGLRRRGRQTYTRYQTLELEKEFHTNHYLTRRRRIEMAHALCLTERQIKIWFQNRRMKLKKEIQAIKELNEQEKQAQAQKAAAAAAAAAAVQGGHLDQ
UniProt P29555: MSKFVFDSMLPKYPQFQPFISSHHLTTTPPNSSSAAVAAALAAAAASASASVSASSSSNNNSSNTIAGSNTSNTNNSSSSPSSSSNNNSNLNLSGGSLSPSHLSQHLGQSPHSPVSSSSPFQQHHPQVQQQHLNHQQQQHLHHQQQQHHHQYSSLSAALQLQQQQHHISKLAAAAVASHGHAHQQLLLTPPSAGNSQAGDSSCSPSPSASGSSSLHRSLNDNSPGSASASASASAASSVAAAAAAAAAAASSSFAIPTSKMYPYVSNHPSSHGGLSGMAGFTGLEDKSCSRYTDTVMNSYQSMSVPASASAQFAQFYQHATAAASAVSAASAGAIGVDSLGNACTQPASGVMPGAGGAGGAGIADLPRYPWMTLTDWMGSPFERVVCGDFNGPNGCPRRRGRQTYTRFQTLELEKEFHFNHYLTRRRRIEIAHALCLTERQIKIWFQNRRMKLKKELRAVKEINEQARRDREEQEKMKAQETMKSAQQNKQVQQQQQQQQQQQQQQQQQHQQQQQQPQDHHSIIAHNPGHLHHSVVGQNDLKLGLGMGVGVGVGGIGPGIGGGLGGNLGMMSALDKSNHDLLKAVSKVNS
UniProt P02833: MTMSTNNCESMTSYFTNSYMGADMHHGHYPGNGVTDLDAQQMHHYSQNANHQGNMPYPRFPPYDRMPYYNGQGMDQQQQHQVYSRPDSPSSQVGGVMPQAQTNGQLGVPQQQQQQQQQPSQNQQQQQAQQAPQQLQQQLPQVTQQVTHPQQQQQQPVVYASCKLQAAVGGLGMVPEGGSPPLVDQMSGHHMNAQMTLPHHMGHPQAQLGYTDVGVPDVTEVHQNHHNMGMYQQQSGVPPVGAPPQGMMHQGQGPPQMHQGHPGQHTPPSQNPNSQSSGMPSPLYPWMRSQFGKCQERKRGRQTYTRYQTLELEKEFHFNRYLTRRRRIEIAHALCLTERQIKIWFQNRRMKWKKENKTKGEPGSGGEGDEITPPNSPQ
UniProt P09632: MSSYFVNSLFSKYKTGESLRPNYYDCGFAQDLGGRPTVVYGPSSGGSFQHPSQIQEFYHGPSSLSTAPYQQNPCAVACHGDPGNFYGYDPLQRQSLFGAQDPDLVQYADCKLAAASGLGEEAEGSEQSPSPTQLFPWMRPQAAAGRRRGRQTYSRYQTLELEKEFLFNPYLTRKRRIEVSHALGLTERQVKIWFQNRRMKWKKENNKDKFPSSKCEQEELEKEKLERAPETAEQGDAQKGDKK
UniProt P06602: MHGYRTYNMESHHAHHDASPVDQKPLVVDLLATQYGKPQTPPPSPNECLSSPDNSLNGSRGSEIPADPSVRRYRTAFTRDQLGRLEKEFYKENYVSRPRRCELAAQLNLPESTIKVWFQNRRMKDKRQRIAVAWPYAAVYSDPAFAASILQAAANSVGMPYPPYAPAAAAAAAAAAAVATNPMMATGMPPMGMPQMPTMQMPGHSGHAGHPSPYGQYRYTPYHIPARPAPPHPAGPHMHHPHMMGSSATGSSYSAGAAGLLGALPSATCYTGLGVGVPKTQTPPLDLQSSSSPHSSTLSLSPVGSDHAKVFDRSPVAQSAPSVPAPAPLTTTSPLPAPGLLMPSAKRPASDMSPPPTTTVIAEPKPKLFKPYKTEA
UniProt P20009: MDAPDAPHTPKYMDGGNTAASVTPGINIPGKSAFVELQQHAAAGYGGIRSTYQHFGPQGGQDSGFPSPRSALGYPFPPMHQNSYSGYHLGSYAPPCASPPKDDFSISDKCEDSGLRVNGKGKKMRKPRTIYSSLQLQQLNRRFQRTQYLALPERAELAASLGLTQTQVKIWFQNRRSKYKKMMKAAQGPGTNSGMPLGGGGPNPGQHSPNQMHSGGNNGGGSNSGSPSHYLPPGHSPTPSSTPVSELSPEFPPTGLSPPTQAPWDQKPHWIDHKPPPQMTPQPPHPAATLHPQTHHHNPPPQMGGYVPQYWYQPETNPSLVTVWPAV
UniProt P07247: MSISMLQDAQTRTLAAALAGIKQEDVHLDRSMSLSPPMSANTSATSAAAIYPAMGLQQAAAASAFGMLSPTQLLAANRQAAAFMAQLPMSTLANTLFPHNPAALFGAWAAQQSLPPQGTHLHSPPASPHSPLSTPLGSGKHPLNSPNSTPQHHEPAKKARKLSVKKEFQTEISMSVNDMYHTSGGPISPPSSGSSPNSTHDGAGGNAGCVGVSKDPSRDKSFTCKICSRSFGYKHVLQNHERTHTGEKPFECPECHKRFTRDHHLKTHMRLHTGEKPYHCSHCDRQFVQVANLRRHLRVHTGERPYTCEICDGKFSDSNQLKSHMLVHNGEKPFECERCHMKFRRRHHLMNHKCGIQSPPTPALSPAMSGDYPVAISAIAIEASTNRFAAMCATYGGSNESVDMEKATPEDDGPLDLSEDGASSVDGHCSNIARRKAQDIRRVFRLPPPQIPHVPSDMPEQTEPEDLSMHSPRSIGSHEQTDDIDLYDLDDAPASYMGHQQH
UniProt P52168: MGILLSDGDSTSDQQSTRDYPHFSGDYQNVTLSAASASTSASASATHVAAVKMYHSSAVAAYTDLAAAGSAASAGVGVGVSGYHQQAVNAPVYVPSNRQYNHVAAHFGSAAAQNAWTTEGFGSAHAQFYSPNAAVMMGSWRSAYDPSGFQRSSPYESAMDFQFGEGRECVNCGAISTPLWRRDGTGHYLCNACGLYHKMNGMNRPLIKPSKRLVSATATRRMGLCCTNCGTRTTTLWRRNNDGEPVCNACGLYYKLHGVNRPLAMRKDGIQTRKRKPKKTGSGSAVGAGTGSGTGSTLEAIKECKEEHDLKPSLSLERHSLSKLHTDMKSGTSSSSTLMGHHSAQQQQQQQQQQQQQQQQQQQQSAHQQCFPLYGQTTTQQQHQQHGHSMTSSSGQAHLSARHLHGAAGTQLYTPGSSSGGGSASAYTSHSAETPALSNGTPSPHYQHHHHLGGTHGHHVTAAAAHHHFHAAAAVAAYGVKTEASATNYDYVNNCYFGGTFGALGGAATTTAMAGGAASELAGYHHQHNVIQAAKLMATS
UniProt P28159: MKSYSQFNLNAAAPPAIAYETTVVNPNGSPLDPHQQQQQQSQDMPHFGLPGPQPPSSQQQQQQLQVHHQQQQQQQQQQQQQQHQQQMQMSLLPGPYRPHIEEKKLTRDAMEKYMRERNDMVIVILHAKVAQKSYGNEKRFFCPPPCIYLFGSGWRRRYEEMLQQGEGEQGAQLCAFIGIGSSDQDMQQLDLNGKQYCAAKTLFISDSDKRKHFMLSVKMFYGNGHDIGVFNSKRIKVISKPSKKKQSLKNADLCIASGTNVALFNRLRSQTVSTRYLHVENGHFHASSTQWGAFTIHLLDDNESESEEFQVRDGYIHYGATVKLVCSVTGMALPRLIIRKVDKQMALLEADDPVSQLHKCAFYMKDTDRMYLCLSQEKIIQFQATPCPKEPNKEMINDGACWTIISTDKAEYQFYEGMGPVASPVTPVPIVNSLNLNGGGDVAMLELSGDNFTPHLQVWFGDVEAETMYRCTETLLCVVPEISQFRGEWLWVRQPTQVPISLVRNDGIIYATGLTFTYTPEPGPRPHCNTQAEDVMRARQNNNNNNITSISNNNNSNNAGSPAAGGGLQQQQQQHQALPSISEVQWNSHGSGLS

Legend:
[1] = biological target: VC-Scr (Drosophila melanogaster) (UniProt P09077); assay: split reporter; Venus BiFC: VC-Hox and VN-TF co-expressed in live Drosophila embryos with the corresponding Hox-Gal4 driver (abdA-Gal4 for AbdA); epidermis, stage 10-12, quantified at stage 10; affected if equal or lower than 50% of wild type, stronger if 120% or more
[2] = biological target: VC-AbdB (Drosophila melanogaster) (UniProt P09087); assay: as above
[3] = biological target: VC-Ubx (Drosophila melanogaster) (UniProt P83949); assay: as above
[4] = biological target: AbdA-HA (Drosophila melanogaster) (UniProt P29555); assay: co-IP; S2 cells transfected with AbdA-HA, actin-Gal4 and the VN-cofactor; nuclear extracts; ip with anti-HA, VN-cofactor revealed with anti-GFP
[5] = biological target: VC-Antp (Drosophila melanogaster) (UniProt P02833); assay: split reporter; Venus BiFC: VC-Hox and VN-TF co-expressed in live Drosophila embryos with the corresponding Hox-Gal4 driver (abdA-Gal4 for AbdA); epidermis, stage 10-12, quantified at stage 10; affected if equal or lower than 50% of wild type, stronger if 120% or more
[6] = biological target: VC-AbdA (Drosophila melanogaster) (UniProt P29555); assay: as above
[7] = biological target: HoxB8 (VC fusion) (mouse) (UniProt P09632); assay: as above

“VN-Even skipped (from UniProt P06602 1-376)” was tested, and the binding [1] was “no binding”.

With “VN-Distal-less (from UniProt P20009 1-327)” the binding [2] was “no binding”, the binding [1] was “no binding” and the binding [3] was “no binding”.

For VN-Kr (from UniProt P07247 1-502), the binding [4] was “binds”.

With VN-Pannier (from UniProt P52168 1-540) the binding [5] was “no binding”, the binding [6] was “binds” and the binding [3] was “no binding”.

In the case of “VN-Suppressor-of-Hairless (from UniProt P28159 1-594)”, the binding [7] is reported as “no binding”.
